# Data as given in PubChem BioAssay AID1259277 (Sanger Institute, 2017).
# Aim: 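Kinase knock-downs that strengthen cell killing by anchor cancer drugs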 (follow-up of hits)
# Cell system: LS123 human colorectal cancer cells
# Reagent: single siRNA against human genes
# Challenge: anchor drug BYL719 at 1 µM, cetuximab at 5 µg/ml or trametinib at 10 nM, or DMSO vehicle only, given one day after siRNA delivery
# Measurement: 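Replicate-averaged viability normalised to non-targeting pool 2 siRNA, and a synergy score contrasting observed combination viability with single siRNA and single drug effects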
# Direction: synergy score with trametinib: higher = stronger synergistic killing with trametinib; synergy score with BYL719: higher = stronger synergistic killing with BYL719; synergy score with cetuximab: higher = stronger synergistic killing with cetuximab
# Rule for the call: 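Active if synergy exceeds 0.10 for any of the three drug combinations, otherwise inactive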
# Calls: active = synergy with at least one anchor drug; inactive = no synergy with any anchor drug
# This is one part, drawn at random, of 160 reagents. 48 of them (30%) count as active. 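Calls refer to individual siRNAs; confirming a gene required at least two siRNAs in multiple cell lines.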 The numbers tell different reagents against one gene apart. Further read-outs or replicates are left out here. The record does not give: the amount of reagent, the time to read-out.
gene knocked down,reagent,synergy score with trametinib,synergy score with BYL719,synergy score with cetuximab,activity call
"PIM1 (Pim-1 proto-oncogene, serine/threonine kinase)",1,0.00124,-0.13,-0.038,inactive
"PIM1 (Pim-1 proto-oncogene, serine/threonine kinase)",2,-0.207,-0.0807,-0.291,inactive
"PIM1 (Pim-1 proto-oncogene, serine/threonine kinase)",3,-0.18,-0.207,-0.13,inactive
"PIM1 (Pim-1 proto-oncogene, serine/threonine kinase)",4,0.0757,-0.0832,0.0398,inactive
IKBKB (inhibitor of nuclear factor kappa B kinase subunit beta),1,-0.0928,-0.146,-0.155,inactive
IKBKB (inhibitor of nuclear factor kappa B kinase subunit beta),2,-0.0699,-0.267,-0.142,inactive
IKBKB (inhibitor of nuclear factor kappa B kinase subunit beta),3,-0.144,-0.289,-0.278,inactive
IKBKB (inhibitor of nuclear factor kappa B kinase subunit beta),4,-0.0927,-0.288,-0.357,inactive
MAP3K8 (mitogen-activated protein kinase kinase kinase 8),1,-0.195,-0.244,-0.118,inactive
MAP3K8 (mitogen-activated protein kinase kinase kinase 8),2,0.0656,-0.0569,-0.00979,inactive
MAP3K8 (mitogen-activated protein kinase kinase kinase 8),3,0.0639,0.0179,-0.158,inactive
MAP3K8 (mitogen-activated protein kinase kinase kinase 8),4,-0.00156,-0.159,-0.152,inactive
IRAK1 (interleukin 1 receptor associated kinase 1),1,-0.025,-0.084,-0.0587,inactive
IRAK1 (interleukin 1 receptor associated kinase 1),2,0.115,0.0115,-0.131,active
IRAK1 (interleukin 1 receptor associated kinase 1),3,-0.128,-0.13,-0.158,inactive
IRAK1 (interleukin 1 receptor associated kinase 1),4,-0.0967,0.00934,-0.141,inactive
CRIM1 (cysteine rich transmembrane BMP regulator 1),1,0.107,-0.134,-0.0375,active
CRIM1 (cysteine rich transmembrane BMP regulator 1),2,-0.02,-0.299,-0.0928,inactive
CRIM1 (cysteine rich transmembrane BMP regulator 1),3,0.0427,-0.0685,-0.11,inactive
CRIM1 (cysteine rich transmembrane BMP regulator 1),4,-0.0778,-0.25,-0.151,inactive

Only “synergy score with cetuximab”, for 3 of the entries above:
IKBKB (inhibitor of nuclear factor kappa B kinase subunit beta) #4 = -0.357
MAP3K8 (mitogen-activated protein kinase kinase kinase 8) #1 = -0.118
MAP3K8 (mitogen-activated protein kinase kinase kinase 8) #2 = -0.00979

More records:
gene knocked down,reagent,synergy score with trametinib,synergy score with BYL719,synergy score with cetuximab,activity call
MAPKAPK2 (MAPK activated protein kinase 2),1,-0.212,0.126,-0.118,active
MAPKAPK2 (MAPK activated protein kinase 2),2,-0.0416,-0.274,-0.0831,inactive
MAPKAPK2 (MAPK activated protein kinase 2),3,0.0531,-0.108,0.0119,inactive
MAPKAPK2 (MAPK activated protein kinase 2),4,0.0109,-0.113,-0.137,inactive
BMPR2 (bone morphogenetic protein receptor type 2),1,-0.0541,-0.205,-0.118,inactive
BMPR2 (bone morphogenetic protein receptor type 2),2,0.153,-0.103,0.0391,active
BMPR2 (bone morphogenetic protein receptor type 2),3,-0.139,-0.338,-0.118,inactive
BMPR2 (bone morphogenetic protein receptor type 2),4,-0.124,-0.266,-0.111,inactive
CSNK2A2 (casein kinase 2 alpha 2),1,0.0787,-0.112,-0.214,inactive
CSNK2A2 (casein kinase 2 alpha 2),2,0.0517,-0.119,-0.0489,inactive
CSNK2A2 (casein kinase 2 alpha 2),3,0.122,-0.0469,-0.0464,active
CSNK2A2 (casein kinase 2 alpha 2),4,0.00872,-0.264,-0.0741,inactive
MAPK4 (mitogen-activated protein kinase 4),1,-0.128,-0.251,-0.206,inactive
MAPK4 (mitogen-activated protein kinase 4),2,-0.0994,-0.174,-0.0951,inactive
MAPK4 (mitogen-activated protein kinase 4),3,0.0583,-0.0826,0.0707,inactive
MAPK4 (mitogen-activated protein kinase 4),4,0.0471,-0.0537,-0.0528,inactive
